Here are results for 19 compounds from PubChem BioAssay AID2685 (National Center for Advancing Translational Sciences (NCATS), 2010).

For orientation: AC50 means the concentration giving half of the maximal activity seen. High values mean activity only at high concentration, low ones activity at low concentration.

This is one part of the list. Shown are side measurements of this screen, not its main read-out; they come without a call. Most of these compounds were active or inconclusive in the main read-out, so they are no random draw. The note in brackets gives the kind of curve behind each potency; many fits are weak.

This assay in a line: qHTS Assay for Lipid Storage Modulators in Drosophila S3 Cells.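 As to cell number change: cells counted by Cell Tracker Red CMTPX staining in the red channel.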 The note with it: BODIPY lipid droplet fluorescence, 18-24 h; for cell number change: measured here: cell count max response, cells fed with added oleic acid. In outline:
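Laser-scanning cytometry quantifies lipid droplet accumulation (500–530 nm total intensity; droplet/cell object ratio) in oleic acid-fed (400 uM added) Drosophila S3 cells treated with a concentration series. 20 uM Triacsin C defined 100% inhibition.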
(qHTS replaces the single test concentration by a dilution series.)

[1] abbreviates: measured here: cell number channel AC50, cells fed with added oleic acid.
[2] abbreviates: measured here: lipid fluorescence (Fed channel) AC50, cells fed with added oleic acid.

Turning to `CC(C)CCNC(=O)NC(=O)COC(=O)CNC(=O)C1CCCCC1`, the cell number change is -5.87%. Also, the AC50 under setting [1] is 4.61 nM [rising, full curve, poor fit].

Regarding `COc1cc(CN2CCNC(=O)C2CC(=O)NCCC2=CCCCC2)cc(OC)c1` (configuration not stated), the cell number change is -10.3%. Also, the AC50 under setting [2] was 259 nM [falling, partial curve, poor fit].

Take `CCCc1ccc(OCC(O)CN2CCN(CCO)CC2)cc1` (configuration not stated): the cell number change was -6.35%.

For the compound `CCn1nc2cc(C(=O)NCCc3cccs3)ccc2c1OC`, the cell number change is -1.04%. The half-maximal activity concentration (AC50) under setting [2] was 461 nM [falling, full curve, poor fit].

On to `O=C(N/N=C/c1ccoc1)c1ccccc1`, for which the cell number change was -23.8%.

In the case of `CN1CCc2c(sc3c2c(NCc2ccco2)nc2nnnn23)C1`, the cell number change is 49.7%. The AC50 under setting [1] was 10300 nM [rising, partial curve].

On to `COc1ccc(C(=O)NCCNc2ccc([N+](=O)[O-])cn2)cc1`, for which the cell number change worked out at 21.6%.

In the case of `Cc1cc(-c2cccs2)c(C#N)c(=S)[nH]1`, the cell number change was 5.34%.

Take `CCCCc1nn2c(N)c(/C=C3\C=Nc4ccccc43)c(=O)nc2s1`: the cell number change worked out at 2.61%.

Regarding `CCC(C)c1ccc(NC(=O)C2CC2)cc1` (configuration not stated), the AC50 under setting [1] is 6510 nM [rising, single point].

Take `COc1ccc(S(=O)(=O)N(C(=O)c2ccco2)c2cc3sc(=O)oc3c3ccccc23)cc1`: the cell number change was -23.2%. Moreover, the AC50 under setting [2] is 29100 nM [falling, single point].

Regarding `CCN1CCN(C(=O)c2ccccc2N(Cc2ccccc2)S(=O)(=O)c2ccc(C)cc2)CC1`, the cell number change is -8.29%. Also, under setting [1], the AC50 was 1030 nM [rising, partial curve, poor fit].

For `O=C(c1ccco1)N1CCCSC1=Nc1ccccc1`, the cell number change was determined as 2.63%.

As for `COc1ccc(NC(=O)Nc2cccc(C)n2)c(OC)c1`, the cell number change was -9.72%.

In the case of `CCC1=NN2C(=N)/C(=C\c3ccc(OCCOc4ccccc4OC)cc3)C(=O)N=C2S1`, the cell number change was 21.7%. The AC50 under setting [2] was 29100 nM [rising, single point].

On to `O=C(Nc1cccc(-c2cccc(F)c2)c1)C1CCN(Cc2ccco2)CC1`, for which the cell number change came out at 36.3%. Besides, under setting [1], the AC50 was 4610 nM [rising, full curve]. Besides, the AC50 under setting [2] is 6510 nM [rising, single point].

For `Cc1ccc(CCNS(=O)(=O)c2cc3c(cc2Cl)NC(=O)CO3)cc1`, the cell number change came out at 1.73%. For the same compound, the concentration at half-maximal activity (AC50) under setting [2] was 46.1 nM [rising, full curve, poor fit].

Turning to `O=C(COC(=O)/C=C/c1ccccc1)NCCC1=CCCCC1`, the cell number change is 21%. For the same compound, under setting [2], the concentration at half-maximal activity (AC50) was 130 nM [rising, partial curve, poor fit].

Turning to `CC1CC2C3CCC4=CC(=O)C=CC4(C)C3(F)C(O)CC2(C)C1(O)C(=O)CO` (configuration not stated), the cell number change came to 9.3%. The AC50 under setting [1] was 461 nM [rising, partial curve, poor fit]. The AC50 under setting [2] is 580 nM [rising, full curve].
